# Record: PubChem BioAssay AID686938 (Drosophila RNAi Screening Center, 2013)
# Test: 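Looking for CRAC channel components and the factors controlling them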 (primary screen)
# System: Drosophila S2R+ cells
# Reagent: long dsRNA against Drosophila genes, about 0.25 µg dsRNA per well, roughly 10,000 cells
# Duration: 5 days of knock-down before the calcium assay
# Challenge: thapsigargin (SERCA pump blocker) to empty calcium stores; entry signal taken 4 min after adding it
# Detection: 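Duplicate raw fluo-4 intensities per well from a plate reader, at rest and four minutes after thapsigargin emptied calcium stores; entry-to-rest ratio filled for only some wells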
# Scale: calcium entry signal: higher = stronger calcium signal after store depletion; entry to resting ratio: higher = more calcium entry relative to resting level; resting calcium signal: higher = higher resting calcium signal
# Hit rule: 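Called when the plate z-score of the entry-to-rest ratio, mean of duplicates, falls below −3; wells with low overall dye signal (Fmax z below −2) or more than five off-targets excluded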
# Meaning of the calls: active = strongly reduced calcium entry; inactive = no strong reduction
# The screen tested about 23,000 reagents; shown is a random part of those with a known target gene and a result. Of all reagents, 75 (0.33%) are marked active. 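Raw plate signals without normalisation; calls rest on plate z-scores that were not deposited; ratio present for only 364 wells.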 A plus sign joins genes that one reagent is predicted to hit. The record does not give: the dose of the treatment.
gene,dsRNA,"calcium entry signal, replicate 1 (fluorescence units)","calcium entry signal, replicate 2 (fluorescence units)",entry to resting ratio,"resting calcium signal, replicate 1 (fluorescence units)","resting calcium signal, replicate 2 (fluorescence units)",Call
CG32102,DRSC22015,2.89e7,6.75e7,,1.40e7,2.92e7,inactive
mip130,DRSC18575,3.88e7,5.14e7,1.9,2.06e7,2.22e7,inactive
CG34050 (retired record),DRSC09067,4.79e7,3.71e7,,2.65e7,2.00e7,inactive
kek6,DRSC15299,3.75e7,3.88e7,2.1,1.80e7,1.78e7,inactive
Prosbeta2,DRSC11257,2.46e7,2.26e7,,2.23e7,1.48e7,active
unc-119,DRSC18846,3.70e7,4.06e7,,1.80e7,1.82e7,inactive
CG6700,DRSC02980,4.66e7,,,2.18e7,,inactive
PolrMT,DRSC00660,4.96e7,,,2.32e7,,inactive
Bap55,DRSC07000,3.04e7,2.56e7,,1.88e7,1.75e7,active
CG4282,DRSC06865,3.61e7,3.75e7,,1.70e7,1.75e7,inactive
sog,DRSC20379,2.32e7,2.90e7,,1.38e7,1.43e7,inactive
Muc26B,DRSC02322,3.83e7,3.90e7,,1.79e7,1.86e7,inactive
CG34409,DRSC14577,3.72e7,3.95e7,,1.91e7,1.91e7,inactive
CG34409,DRSC21667,4.61e7,3.67e7,,2.41e7,1.70e7,inactive
Git,DRSC06620,4.32e7,4.42e7,,2.91e7,1.81e7,inactive
Hn,DRSC11184,5.58e7,4.47e7,,3.65e7,1.85e7,inactive
Eig71Ec,DRSC11150,3.53e7,3.93e7,,1.70e7,1.75e7,inactive
Sirup,DRSC03031,2.74e7,4.02e7,,1.31e7,1.65e7,inactive
Cyt-c1,DRSC10447,6.03e7,5.08e7,,3.63e7,1.89e7,inactive
CG31821,DRSC22162,2.81e7,4.44e7,,1.37e7,2.29e7,inactive
Or24a,DRSC00768,2.39e7,2.43e7,,1.27e7,1.19e7,inactive
amx,DRSC18736,4.03e7,6.63e7,,2.08e7,3.24e7,inactive
Tsp47F,DRSC07325,2.34e7,2.83e7,,1.35e7,1.60e7,inactive
CG12974,DRSC11684,1.90e7,3.24e7,,1.01e7,1.53e7,inactive
CG32453,DRSC21673,4.11e7,3.67e7,,2.35e7,1.81e7,inactive
Sting,DRSC06615,3.54e7,3.24e7,,1.71e7,1.37e7,inactive
coro,DRSC05007,3.99e7,,,2.02e7,,inactive
coro,DRSC21417,3.17e7,3.96e7,,1.78e7,1.74e7,inactive
Tengl1,DRSC00481,3.06e7,3.55e7,,1.51e7,1.76e7,inactive
Doc1,DRSC11146,3.84e7,3.87e7,,1.65e7,1.71e7,inactive
Invadolysin,DRSC15527,2.73e7,3.09e7,,1.31e7,1.48e7,inactive
Pdh,DRSC11249,4.29e7,5.24e7,,2.04e7,3.53e7,inactive
eIF2A,DRSC11825,2.82e7,4.09e7,,1.30e7,2.79e7,inactive
CG7518,DRSC16253,3.59e7,5.46e7,,1.62e7,2.33e7,inactive
CG11816,DRSC19428,3.55e7,3.45e7,,1.79e7,1.81e7,inactive
CG13023,DRSC09454,4.41e7,3.79e7,,2.17e7,1.92e7,inactive
CG13023,DRSC09903,3.33e7,6.24e7,,1.72e7,2.35e7,inactive
Cen,DRSC02704,2.90e7,,,1.55e7,,inactive
Lip4,DRSC02930,3.44e7,5.04e7,,1.66e7,2.01e7,inactive
ball,DRSC14145,2.99e7,3.56e7,,1.69e7,2.00e7,inactive
zf30C,DRSC03641,4.27e7,,,1.96e7,,inactive
Ranbp16,DRSC20160,3.40e7,3.31e7,,1.70e7,1.58e7,inactive
lncRNA:CR40053,DRSC20833,3.65e7,4.83e7,,1.77e7,2.03e7,inactive
Snrk,DRSC07192,3.40e7,4.54e7,,1.47e7,2.18e7,inactive
Snrk,DRSC23332,3.89e7,3.53e7,,2.16e7,1.65e7,inactive
Gyc32E,DRSC01154,3.86e7,4.74e7,,1.95e7,2.11e7,inactive
lncRNA:CR43451,DRSC13352,4.90e7,2.95e7,,2.44e7,1.58e7,inactive
Acsf2,DRSC02172,3.54e7,3.78e7,,1.79e7,1.64e7,inactive
kumpel,DRSC14883,4.79e7,4.67e7,,2.50e7,2.00e7,inactive
kumpel,DRSC16459,3.76e7,5.63e7,,1.86e7,2.25e7,inactive
kumpel,DRSC16460,5.57e7,4.45e7,,2.40e7,1.73e7,inactive
kumpel,DRSC16461,3.75e7,6.74e7,,1.94e7,2.62e7,inactive
kumpel,DRSC16462,4.01e7,7.11e7,,2.08e7,2.92e7,inactive
kumpel,DRSC16463,5.46e7,7.55e7,,2.58e7,3.17e7,inactive
CG9624,DRSC16523,2.22e7,2.49e7,,1.13e7,4.46e7,inactive
CG14330,DRSC14809,3.82e7,4.79e7,,1.78e7,7.63e7,inactive
CG12259,DRSC14486,3.14e7,4.52e7,,1.72e7,2.00e7,inactive
CG12259,DRSC23281,4.85e7,4.44e7,,2.58e7,1.84e7,inactive
CG42394 + CG6567,DRSC12821,2.93e7,4.41e7,,1.45e7,1.80e7,inactive
CG13784,DRSC00974,2.78e7,3.29e7,,1.39e7,1.30e7,inactive
CG13784,DRSC02287,5.11e7,,,2.12e7,,inactive
CG10621,DRSC02078,4.78e7,5.36e7,,2.50e7,2.14e7,inactive
CG7763,DRSC07043,3.09e7,3.51e7,,1.51e7,1.71e7,inactive
sca,DRSC07677,3.82e7,3.64e7,,1.97e7,1.54e7,inactive
CG10973,DRSC09813,5.09e7,3.96e7,,3.24e7,1.69e7,inactive
PIG-B,DRSC08216,3.74e7,6.59e7,,2.58e7,3.05e7,inactive
PIG-B,DRSC22598,3.79e7,3.38e7,,2.26e7,1.56e7,inactive
Glt,DRSC03333,4.75e7,,,2.17e7,,inactive
Cpr47Ec,DRSC07332,2.59e7,2.96e7,,1.30e7,1.24e7,inactive
VhaM9.7-a,DRSC08289,3.17e7,2.81e7,,1.73e7,1.45e7,inactive
Lipt1,DRSC05600,1.60e7,4.27e7,,7.53e6,2.41e7,inactive
CG8093,DRSC07078,3.49e7,3.48e7,,1.83e7,1.70e7,inactive
CG31463,DRSC14346,4.37e7,3.28e7,,2.20e7,1.73e7,inactive
CG17780,DRSC15265,3.35e7,5.42e7,,1.77e7,2.18e7,inactive
CG32109,DRSC09816,2.28e7,3.56e7,,1.22e7,1.51e7,inactive

Already shown: 4 of the entries above.
gene,dsRNA,"calcium entry signal, replicate 1 (fluorescence units)","calcium entry signal, replicate 2 (fluorescence units)",entry to resting ratio,"resting calcium signal, replicate 1 (fluorescence units)","resting calcium signal, replicate 2 (fluorescence units)",Call
Acsf2,DRSC02172,3.54e7,3.78e7,,1.79e7,1.64e7,inactive
kumpel,DRSC14883,4.79e7,4.67e7,,2.50e7,2.00e7,inactive
kumpel,DRSC16459,3.76e7,5.63e7,,1.86e7,2.25e7,inactive
kumpel,DRSC16460,5.57e7,4.45e7,,2.40e7,1.73e7,inactive
